± gives the standard deviation of the averaged measurements. This is one part of the list.
Compound: Nc1nc2c(ncn2[C@@H]2O[C@H](COP(=O)(O)OP(=O)(O)OP(=O)(O)O)[C@@H](O)[C@H]2O)c(=O)[nH]1 [guanosine triphosphate]
Test: NP40-soluble protein abundance relative to vehicle (solubility fold change) (ratio); higher = more soluble protein in presence of GTP
In short: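 Across three independent experiments, values are fold changes against the detergent-processed vehicle for each replicate, based on vsn-normalised intensities. The samples were Jurkat crude lysate treated with eight concentrations (0.1 to 10 mM) for 10 min at room temperature and then 3 min at 37 °C. Lysate was solubilised with 0.8% NP40 and benzonase, ultracentrifuged, and the supernatant analysed by TMT-labelled LC-MS/MS.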

Sequences of proteins named here, by UniProt entry; tags and fusion partners are left off. A change or cut given only in a name is not applied to a line headed by its entry.
UniProt O00399, whole entry: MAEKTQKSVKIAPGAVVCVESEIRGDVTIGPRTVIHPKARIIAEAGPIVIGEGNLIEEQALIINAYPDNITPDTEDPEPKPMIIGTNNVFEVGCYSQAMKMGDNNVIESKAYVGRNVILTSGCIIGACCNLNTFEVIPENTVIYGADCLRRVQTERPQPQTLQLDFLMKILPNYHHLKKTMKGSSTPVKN
UniProt O14967: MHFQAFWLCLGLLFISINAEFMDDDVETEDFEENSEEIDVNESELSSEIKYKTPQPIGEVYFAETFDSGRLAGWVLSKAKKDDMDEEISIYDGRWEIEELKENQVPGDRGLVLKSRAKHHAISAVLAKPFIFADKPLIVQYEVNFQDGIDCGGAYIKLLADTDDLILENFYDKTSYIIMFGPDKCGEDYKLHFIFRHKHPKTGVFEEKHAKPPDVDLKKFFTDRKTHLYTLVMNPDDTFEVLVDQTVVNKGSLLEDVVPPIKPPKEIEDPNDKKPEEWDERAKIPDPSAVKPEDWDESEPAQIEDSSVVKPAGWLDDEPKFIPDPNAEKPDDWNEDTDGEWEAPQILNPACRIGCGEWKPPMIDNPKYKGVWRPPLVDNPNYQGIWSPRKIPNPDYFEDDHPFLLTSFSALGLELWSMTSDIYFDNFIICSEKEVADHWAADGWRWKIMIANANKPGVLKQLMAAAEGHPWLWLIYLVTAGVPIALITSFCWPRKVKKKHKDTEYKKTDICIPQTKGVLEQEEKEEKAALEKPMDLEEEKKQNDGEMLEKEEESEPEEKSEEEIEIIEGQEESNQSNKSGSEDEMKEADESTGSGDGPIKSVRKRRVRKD
UniProt O43924: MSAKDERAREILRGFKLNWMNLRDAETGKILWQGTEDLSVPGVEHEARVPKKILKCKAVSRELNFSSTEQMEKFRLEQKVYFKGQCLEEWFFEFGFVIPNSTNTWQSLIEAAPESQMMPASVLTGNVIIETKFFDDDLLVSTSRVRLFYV
UniProt O00463: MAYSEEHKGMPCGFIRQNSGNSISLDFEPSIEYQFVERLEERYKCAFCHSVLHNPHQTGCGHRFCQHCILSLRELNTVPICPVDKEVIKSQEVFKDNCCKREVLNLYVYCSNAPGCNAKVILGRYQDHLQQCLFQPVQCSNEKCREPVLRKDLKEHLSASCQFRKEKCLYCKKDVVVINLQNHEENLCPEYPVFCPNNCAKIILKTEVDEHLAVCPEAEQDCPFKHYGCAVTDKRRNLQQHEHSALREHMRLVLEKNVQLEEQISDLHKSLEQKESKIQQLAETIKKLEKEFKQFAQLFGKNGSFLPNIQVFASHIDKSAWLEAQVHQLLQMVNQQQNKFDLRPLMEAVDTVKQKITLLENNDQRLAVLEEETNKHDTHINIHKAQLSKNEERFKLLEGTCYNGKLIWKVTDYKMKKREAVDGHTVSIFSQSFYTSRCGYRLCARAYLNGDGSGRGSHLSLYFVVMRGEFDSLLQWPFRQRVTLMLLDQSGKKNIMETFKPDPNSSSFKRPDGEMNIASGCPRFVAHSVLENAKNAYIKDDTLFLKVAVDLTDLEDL
UniProt O14933: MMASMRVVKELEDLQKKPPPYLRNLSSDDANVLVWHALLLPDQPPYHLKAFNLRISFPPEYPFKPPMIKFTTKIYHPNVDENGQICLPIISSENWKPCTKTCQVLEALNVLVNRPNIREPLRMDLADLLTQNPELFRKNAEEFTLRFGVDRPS
UniProt O15084: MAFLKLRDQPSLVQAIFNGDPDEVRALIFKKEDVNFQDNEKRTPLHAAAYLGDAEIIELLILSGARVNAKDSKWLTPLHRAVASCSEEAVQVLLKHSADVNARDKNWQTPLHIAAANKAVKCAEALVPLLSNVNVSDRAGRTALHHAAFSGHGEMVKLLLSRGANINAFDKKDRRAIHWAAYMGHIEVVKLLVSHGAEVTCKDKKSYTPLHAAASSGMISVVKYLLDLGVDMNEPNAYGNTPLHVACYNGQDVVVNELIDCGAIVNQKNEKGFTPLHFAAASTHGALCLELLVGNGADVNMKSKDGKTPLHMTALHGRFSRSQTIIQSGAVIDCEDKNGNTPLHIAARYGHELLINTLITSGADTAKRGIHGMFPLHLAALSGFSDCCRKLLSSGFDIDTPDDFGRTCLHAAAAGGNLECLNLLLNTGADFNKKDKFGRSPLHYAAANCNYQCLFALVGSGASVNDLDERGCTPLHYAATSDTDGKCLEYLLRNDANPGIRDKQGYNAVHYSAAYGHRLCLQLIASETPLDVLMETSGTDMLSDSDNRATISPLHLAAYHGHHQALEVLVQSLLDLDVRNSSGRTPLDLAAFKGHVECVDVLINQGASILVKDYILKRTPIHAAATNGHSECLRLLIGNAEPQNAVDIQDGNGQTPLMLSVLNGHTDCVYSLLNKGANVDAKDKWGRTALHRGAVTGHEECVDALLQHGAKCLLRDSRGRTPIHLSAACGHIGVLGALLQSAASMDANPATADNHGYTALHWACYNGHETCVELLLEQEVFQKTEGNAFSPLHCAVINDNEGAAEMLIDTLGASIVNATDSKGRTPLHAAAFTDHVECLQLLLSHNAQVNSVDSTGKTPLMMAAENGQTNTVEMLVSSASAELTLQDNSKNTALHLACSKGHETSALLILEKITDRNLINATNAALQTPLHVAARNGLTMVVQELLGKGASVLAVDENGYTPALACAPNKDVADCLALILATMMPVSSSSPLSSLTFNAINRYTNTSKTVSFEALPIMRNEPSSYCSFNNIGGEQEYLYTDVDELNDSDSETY
UniProt Q9NP81: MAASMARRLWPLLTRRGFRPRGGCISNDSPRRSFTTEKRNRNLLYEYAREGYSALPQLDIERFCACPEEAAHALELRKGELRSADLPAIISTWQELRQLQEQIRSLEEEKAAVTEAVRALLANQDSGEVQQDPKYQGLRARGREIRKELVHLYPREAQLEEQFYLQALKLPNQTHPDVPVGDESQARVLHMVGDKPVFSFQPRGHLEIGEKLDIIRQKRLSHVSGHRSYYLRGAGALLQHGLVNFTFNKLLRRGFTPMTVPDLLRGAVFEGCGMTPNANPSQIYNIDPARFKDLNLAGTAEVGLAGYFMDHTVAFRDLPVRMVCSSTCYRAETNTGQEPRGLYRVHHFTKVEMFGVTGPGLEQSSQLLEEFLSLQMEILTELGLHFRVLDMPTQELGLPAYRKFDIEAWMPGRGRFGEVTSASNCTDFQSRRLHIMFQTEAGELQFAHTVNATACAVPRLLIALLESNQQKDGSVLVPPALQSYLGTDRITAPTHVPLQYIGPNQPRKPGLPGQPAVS

DCTN6 (UniProt O00399)
NP40-soluble protein abundance (concentration: 0.1mM): 1.04 ± 0.068
NP40-soluble protein abundance (concentration: 0.5mM): 1.1 ± 0.068
NP40-soluble protein abundance (concentration: 1mM): 1.12 ± 0.14
NP40-soluble protein abundance (concentration: 2mM): 1.11 ± 0.084
NP40-soluble protein abundance (concentration: 4mM): 1.11 ± 0.11
NP40-soluble protein abundance (concentration: 6mM): 1.1 ± 0.14
NP40-soluble protein abundance (concentration: 8mM): 1.16 ± 0.18
NP40-soluble protein abundance (concentration: 10mM): 1.07 ± 0.17

UniProt O14967 and related entries
NP40-soluble protein abundance (concentration: 0.1mM): 1.04 ± 0.029
NP40-soluble protein abundance (concentration: 0.5mM): 0.977 ± 0.031
NP40-soluble protein abundance (concentration: 1mM): 0.979 ± 0.1
NP40-soluble protein abundance (concentration: 2mM): 0.951 ± 0.098
NP40-soluble protein abundance (concentration: 4mM): 0.965 ± 0.07
NP40-soluble protein abundance (concentration: 6mM): 0.913 ± 0.071
NP40-soluble protein abundance (concentration: 8mM): 0.965 ± 0.12
NP40-soluble protein abundance (concentration: 10mM): 0.927 ± 0.11

PDE6D (UniProt O43924)
NP40-soluble protein abundance (concentration: 0.1mM): 1.08 ± 0.056
NP40-soluble protein abundance (concentration: 0.5mM): 1.15 ± 0.019
NP40-soluble protein abundance (concentration: 1mM): 1.04 ± 0.14
NP40-soluble protein abundance (concentration: 2mM): 1.03 ± 0.03
NP40-soluble protein abundance (concentration: 4mM): 1.03 ± 0.091
NP40-soluble protein abundance (concentration: 6mM): 0.985 ± 0.15
NP40-soluble protein abundance (concentration: 8mM): 0.8972 ± 0.0058
NP40-soluble protein abundance (concentration: 10mM): 0.9622 ± 0.0046

TRAF5 (UniProt O00463)
NP40-soluble protein abundance (concentration: 0.1mM): 0.998 ± 0.02
NP40-soluble protein abundance (concentration: 0.5mM): 1.1 ± 0.019
NP40-soluble protein abundance (concentration: 1mM): 0.982 ± 0.023
NP40-soluble protein abundance (concentration: 2mM): 0.998 ± 0.041
NP40-soluble protein abundance (concentration: 4mM): 0.978 ± 0.037
NP40-soluble protein abundance (concentration: 6mM): 0.98 ± 0.064
NP40-soluble protein abundance (concentration: 8mM): 0.951 ± 0.066
NP40-soluble protein abundance (concentration: 10mM): 0.989 ± 0.04

UBE2L6 (UniProt O14933)
NP40-soluble protein abundance (concentration: 0.1mM): 0.877 ± 0.06
NP40-soluble protein abundance (concentration: 0.5mM): 0.875 ± 0.048
NP40-soluble protein abundance (concentration: 1mM): 0.924 ± 0.03
NP40-soluble protein abundance (concentration: 2mM): 0.956 ± 0.047
NP40-soluble protein abundance (concentration: 4mM): 0.862 ± 0.078
NP40-soluble protein abundance (concentration: 6mM): 0.912 ± 0.097
NP40-soluble protein abundance (concentration: 8mM): 0.835 ± 0.11
NP40-soluble protein abundance (concentration: 10mM): 0.953 ± 0.054

ANKRD28 (UniProt O15084)
NP40-soluble protein abundance (concentration: 0.1mM): 1.06 ± 0.073
NP40-soluble protein abundance (concentration: 0.5mM): 1.08 ± 0.09
NP40-soluble protein abundance (concentration: 1mM): 1.09 ± 0.099
NP40-soluble protein abundance (concentration: 2mM): 1.13 ± 0.13
NP40-soluble protein abundance (concentration: 4mM): 1.14 ± 0.16
NP40-soluble protein abundance (concentration: 6mM): 1.12 ± 0.16
NP40-soluble protein abundance (concentration: 8mM): 1.08 ± 0.16
NP40-soluble protein abundance (concentration: 10mM): 1.05 ± 0.13

M0QWZ7 and related entries (UniProt Q9NP81)
NP40-soluble protein abundance (concentration: 0.1mM): 1.04 ± 0.024
NP40-soluble protein abundance (concentration: 0.5mM): 1.02 ± 0.014
NP40-soluble protein abundance (concentration: 1mM): 0.9937 ± 0.0095
NP40-soluble protein abundance (concentration: 2mM): 1.01 ± 0.015
NP40-soluble protein abundance (concentration: 4mM): 1.01 ± 0.013
NP40-soluble protein abundance (concentration: 6mM): 0.991 ± 0.034
NP40-soluble protein abundance (concentration: 8mM): 1.01 ± 0.028
NP40-soluble protein abundance (concentration: 10mM): 0.9723 ± 0.0047
